According to publication doi:10.1101/2021.09.24.461724:
These are yes or no findings as the source states them, for the method shown. In cells and extracts the contact can be indirect. Some entries that bind do so weakly or less than the wild type. Where a sequence is shown, tags or fusion partners need not be part of it.

T1: LIP1 full-length ORF fused upstream of the N-terminal region of YFP (LIP1-N) (Arabidopsis thaliana) (UniProt Q9ZWT1)
T1 sequence: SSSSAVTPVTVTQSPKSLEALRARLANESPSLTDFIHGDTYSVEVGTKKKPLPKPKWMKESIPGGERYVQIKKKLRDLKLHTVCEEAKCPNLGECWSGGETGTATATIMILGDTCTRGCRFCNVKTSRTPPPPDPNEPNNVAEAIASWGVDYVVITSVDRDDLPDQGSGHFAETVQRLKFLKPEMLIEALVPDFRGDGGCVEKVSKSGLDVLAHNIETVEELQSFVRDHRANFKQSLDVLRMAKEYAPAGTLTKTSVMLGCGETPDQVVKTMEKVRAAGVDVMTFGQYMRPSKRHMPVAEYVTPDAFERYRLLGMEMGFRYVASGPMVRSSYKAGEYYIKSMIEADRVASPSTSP


Target: T1, LIP1 full-length ORF fused upstream of the N-terminal region of YFP (LIP1-N) (Arabidopsis thaliana)
Test: split reporter

| binding | Binder |
| --- | --- |
| binds | NFU4 full-length ORF fused upstream of the C-terminal region of YFP (NFU4-C) (protein, UniProt Q9LIG6 49-283) LNSRTKDSALPSLNSSLLAQKWNFLGGQRRTMFIQTQSTPNPSSLMFYPGKPVMEVGSADFPNVRSALGSPLAKSIYSIDGVVRVFFGSDFVTVTKSDDVSWDILKPEIFAAVMDFYSSGQPLFLDSQAAAAKDTAISEDDSETVAMIKELLETRIRPAVQDDGGDIEYCGFDPESGIVKLRMQGACSGCPSSSVTLKSGIENMLMHYVSEVKGVEQEFDGEDEEGTLSGEMRVE |
| binds | NFU5 full-length ORF fused upstream of the C-terminal region of YFP (NFU5-C) (protein, UniProt Q9C8J2 62-275) SSFPFNWIEQRRTMFIQTQSTPNPSSLMFSPGKPVMEIGSADFPNSRSAMSSPLAKAIFAIDGVVRVFYGSDFVTVTKSDDVTWDILKPDIFAVVMDFYSSGQPLFLDSQATAAKDTAIHEDDSETVAMIKELLETRIRPSVQDDGGDIEYCGFDTETGIVKLRMQGACSGCPSSSVTLKSGIENMLMHYVSEVKGVEQEFDGEEEGTSSGPME |
